In the supplement of paper PMC8728848:
Some of the results follow.

How the values were obtained:
Experiment in all cases: glycan array binding signal (z-score within array); higher = stronger binding
Details in all cases: glycan notation: IUPAC condensed, linker removed
[1] = molecular target: Fuc(a1-2)[GalNAc(a1-3)]Gal(b1-3)GlcNAc(b1-6)GalNAc
Summary of the method: (§1)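 From the Consortium for Functional Glycomics database, 3228 arrays were curated, keeping only those whose protein sequence was available. Binding is given as a within-array Z-score averaged across arrays sharing a protein sequence and across linkers. Negative Z-scores can be read as non-binding.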

[2] = molecular target: Fuc(a1-2)[GalNAc(a1-3)]Gal(b1-4)Glc
Summary of the method: as §1

[3] = molecular target: Fuc(a1-2)[GalNAc(a1-3)]Gal(b1-4)GlcNAc
Summary of the method: as §1

[4] = molecular target: Fuc(a1-2)[GalNAc(a1-3)]Gal(b1-4)GlcNAc(b1-2)Man
Summary of the method: as §1

[5] = molecular target: Fuc(a1-2)[GalNAc(a1-3)]Gal(b1-4)GlcNAc(b1-2)Man(a1-3)[Fuc(a1-2)[GalNAc(a1-3)]Gal(b1-4)GlcNAc(b1-2)Man(a1-6)]Man(b1-4)GlcNAc(b1-4)GlcNAc
Summary of the method: as §1

[6] = molecular target: Fuc(a1-2)[GalNAc(a1-3)]Gal(b1-4)GlcNAc(b1-2)Man(a1-3)[Fuc(a1-2)[GalNAc(a1-3)]Gal(b1-4)GlcNAc(b1-2)Man(a1-6)]Man(b1-4)GlcNAc(b1-4)[Fuc(a1-6)]GlcNAc
Summary of the method: as §1

[7] = molecular target: Fuc(a1-2)[GalNAc(a1-3)]Gal(b1-4)GlcNAc(b1-3)Gal(b1-4)GlcNAc
Summary of the method: as §1

[8] = molecular target: Fuc(a1-2)[GalNAc(a1-3)]Gal(b1-4)GlcNAc(b1-3)Gal(b1-4)GlcNAc(b1-3)Gal(b1-4)GlcNAc
Summary of the method: as §1

[9] = molecular target: Fuc(a1-2)[GalNAc(a1-3)]Gal(b1-4)GlcNAc(b1-3)GalNAc
Summary of the method: as §1

[10] = molecular target: Fuc(a1-2)[GalNAc(a1-3)]Gal(b1-4)GlcNAc(b1-3)[Fuc(a1-2)[GalNAc(a1-3)]Gal(b1-4)GlcNAc(b1-6)]GalNAc
Summary of the method: as §1

[11] = molecular target: Fuc(a1-2)[GalNAc(a1-3)]Gal(b1-4)GlcNAc(b1-6)GalNAc
Summary of the method: as §1

[12] = molecular target: Fuc(a1-2)[GalNAc(a1-3)]Gal(b1-4)[Fuc(a1-3)]GlcNAc
Summary of the method: as §1

[13] = molecular target: Fuc(a1-2)[GalNAc(a1-3)]Gal(b1-4)[Fuc(a1-3)]GlcNAc(b1-3)GalNAc
Summary of the method: as §1

[14] = molecular target: Fuc(a1-2)[GalNAc(a1-4)]Gal(b1-4)GlcNAc
Summary of the method: as §1

[15] = molecular target: Fuc(a1-2)[GalNAc(b1-3)]Gal
Summary of the method: as §1

Fuc(a1-3)GlcNAc = molecular target: Fuc(a1-3)GlcNAc
Summary of the method: as §1

[16] = molecular target: Fuc(a1-3)[Gal(b1-4)]Glc6S
Summary of the method: as §1

[17] = molecular target: Fuc(a1-3)[Gal(b1-4)]GlcNAc
Summary of the method: as §1

[18] = molecular target: Fuc(a1-3)[Gal(b1-4)]GlcNAc(b1-2)Man
Summary of the method: as §1

[19] = molecular target: Fuc(a1-3)[Gal(b1-4)]GlcNAc(b1-2)Man(a1-3)[Fuc(a1-3)[Gal(b1-4)]GlcNAc(b1-2)Man(a1-6)]Man(b1-4)GlcNAc(b1-4)GlcNAc
Summary of the method: as §1

[20] = molecular target: Fuc(a1-3)[Gal(b1-4)]GlcNAc(b1-2)Man(a1-3)[Fuc(a1-3)[Gal(b1-4)]GlcNAc(b1-2)Man(a1-6)]Man(b1-4)GlcNAc(b1-4)[Fuc(a1-6)]GlcNAc
Summary of the method: as §1

[21] = molecular target: Fuc(a1-3)[Gal(b1-4)]GlcNAc(b1-3)Gal(b1-3)[Fuc(a1-4)]GlcNAc
Summary of the method: as §1

[22] = molecular target: Fuc(a1-3)[Gal(b1-4)]GlcNAc(b1-3)Gal(b1-4)[Fuc(a1-3)]GlcNAc
Summary of the method: as §1

[23] = molecular target: Fuc(a1-3)[Gal(b1-4)]GlcNAc(b1-3)Gal(b1-4)[Fuc(a1-3)]GlcNAc(b1-3)Gal(b1-4)[Fuc(a1-3)]GlcNAc
Summary of the method: as §1

[24] = molecular target: Fuc(a1-3)[Gal(b1-4)]GlcNAc(b1-3)GalNAc
Summary of the method: as §1

[25] = molecular target: Fuc(a1-3)[Gal(b1-4)]GlcNAc(b1-6)GalNAc
Summary of the method: as §1

[26] = molecular target: Fuc(a1-3)[Gal(b1-4)]GlcNAc(b1-6)[Gal(b1-3)GlcNAc(b1-3)]Gal(b1-4)Glc
Summary of the method: as §1

[27] = molecular target: Fuc(a1-3)[Gal(b1-4)]GlcNAc6S
Summary of the method: as §1

[28] = molecular target: Fuc(a1-3)[Gal3S(b1-4)]Glc
Summary of the method: as §1

[29] = molecular target: Fuc(a1-3)[Gal3S(b1-4)]GlcNAc
Summary of the method: as §1

[30] = molecular target: Fuc(a1-3)[Gal3S(b1-4)]GlcNAc6S
Summary of the method: as §1

[31] = molecular target: Fuc(a1-3)[GalNAc(b1-4)]GlcNAc
Summary of the method: as §1

[32] = molecular target: Fuc(a1-3)[GalNAc(b1-4)]GlcNAc6S
Summary of the method: as §1

Fuc(a1-4)GlcNAc = molecular target: Fuc(a1-4)GlcNAc
Summary of the method: as §1

Fuc(b1-3)GlcNAc = molecular target: Fuc(b1-3)GlcNAc
Summary of the method: as §1

Gal(a1-2)Gal = molecular target: Gal(a1-2)Gal
Summary of the method: as §1

Gal(a1-3)Gal = molecular target: Gal(a1-3)Gal
Summary of the method: as §1

B1: AntigenI/IIA3VP1 (Streptococcus mutans), C9E3B4 (protein)
chain: AANEADYQAKLTAYQTELARVQKANADAKAAYEAAVAANNAANAALTAENTAIKKRNADAKADYEAKLAKYQADLAKYQKDLADYPVKLKAYEDEQASIKAALAELEKHKNEDGNLTEPSAQNLVYDLEPNANLSLTTDGKFLKASAVDDAFSKSTSKAKYDQKILQLDDLDITNLEQSNDVASSMELYGNFGDKAGWSTTVSNNSQVKWGSVLLERGQSATATYTNLQNSYYNGKKISKIVYKYTVDPKSKFQGQKVWLGIFTDPTLGVFASAYTGQVEKNTSIFIKNEFTFYDEDGKPINFDNALLSVASLNREHNSIEMAKDYSGKFVKISGSSIGEKNGMIYATDTLNFKQGEGGSRWTMYKNSQAGSGWDSSDAPNSWYGAGAIKMSGPNNYVTVGATSATNVMPVSDMPVVPGKDNTDGKKPNIWYSLNGKIRAVNVPKVTKEKPTPPVKPTAPTKPTYETEKPLKPAPVAPNYEKEPTPPTRLEHHHHHH
[1]
  glycan array binding signal (z-score): -0.332
[2]
  glycan array binding signal (z-score): -0.73
[3]
  glycan array binding signal (z-score): -0.846
[4]
  glycan array binding signal (z-score): -0.981
[5]
  glycan array binding signal (z-score): 1.01
[6]
  glycan array binding signal (z-score): 0.155
[7]
  glycan array binding signal (z-score): -0.716
[8]
  glycan array binding signal (z-score): 0.177
[9]
  glycan array binding signal (z-score): 0.387
[10]
  glycan array binding signal (z-score): 0.2
[11]
  glycan array binding signal (z-score): -0.877
[12]
  glycan array binding signal (z-score): 0.39
[13]
  glycan array binding signal (z-score): 1.57
[14]
  glycan array binding signal (z-score): 0.888
[15]
  glycan array binding signal (z-score): 0.107
Fuc(a1-3)GlcNAc
  glycan array binding signal (z-score): 0.171
[16]
  glycan array binding signal (z-score): -0.335
[17]
  glycan array binding signal (z-score): 0.825
[18]
  glycan array binding signal (z-score): -0.375
[19]
  glycan array binding signal (z-score): 0.126
[20]
  glycan array binding signal (z-score): 0.761
[21]
  glycan array binding signal (z-score): -0.626
[22]
  glycan array binding signal (z-score): 0.907
[23]
  glycan array binding signal (z-score): -0.372
[24]
  glycan array binding signal (z-score): 2.64
[25]
  glycan array binding signal (z-score): 0.145
[26]
  glycan array binding signal (z-score): -1.16
[27]
  glycan array binding signal (z-score): 0.21
[28]
  glycan array binding signal (z-score): 0.537
[29]
  glycan array binding signal (z-score): 0.994
[30]
  glycan array binding signal (z-score): 1.19
[31]
  glycan array binding signal (z-score): 0.932
[32]
  glycan array binding signal (z-score): -0.39
Fuc(a1-4)GlcNAc
  glycan array binding signal (z-score): -0.388
Fuc(b1-3)GlcNAc
  glycan array binding signal (z-score): -0.59
Gal(a1-2)Gal
  glycan array binding signal (z-score): -0.596
Gal(a1-3)Gal
  glycan array binding signal (z-score): -0.197
